# Measured data: PubChem BioAssay AID1259424 (University of Nebraska Medical Center, 2018)
# Purpose: 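Rank knockdowns across the genome by resemblance to the KSR1 depletion profile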 (primary screen)
# Cells: human HCT116 colon cancer cells
# Knock-down reagent: siRNA pool against human genes, 50 nM
# Detection: 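Six signature mRNAs by branched-DNA multiplex assay, scaled to two housekeeping genes and non-targeting median, log2; matched to mean KSR1 knockdown profile by Pearson correlation and euclidean distance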
# Scale: mean correlation with KSR1 profile and KSR1 correlation: higher = expression change more like KSR1 knockdown; mean distance from KSR1 profile: higher = expression change less like KSR1 knockdown
# Here is one part, drawn at random, of about 14,000 reagents. 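Higher correlation or smaller distance means closer resemblance to KSR1 loss; control wells, including KSR1 knockdowns, recur on many plates.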 No sequences are given here. The record does not give: the time to read-out.
gene symbol,mean correlation with KSR1 profile,mean distance from KSR1 profile,"KSR1 correlation, replicate 1","KSR1 correlation, replicate 2","KSR1 correlation, replicate 3"
RPRD1B (GeneID 58490),-0.391,1.58,-0.759,0.189,-0.456
ZNF239 (GeneID 8187),-0.263,2.22,-0.0707,-0.332,-0.402
CHRNA2 (GeneID 1135),0.508,0.972,0.769,0.382,0.332
COL8A1 (GeneID 1295),-0.193,2.21,-0.24,-0.384,-0.237
SBDS (GeneID 51119),-0.192,2.12,-0.314,-0.188,-0.108
CTNNBL1 (GeneID 56259),-0.188,1.92,0.0894,-0.308,-0.54
ADCYAP1 (GeneID 116),-0.0707,1.53,0.036,-0.131,-0.191
ZNF215 (GeneID 7762),-0.0914,1.3,-0.181,0.0182,-0.177
ZBED5 (GeneID 58486),-0.0441,2.68,-0.137,-0.00782,-0.186
USP38 (GeneID 84640),-0.516,1.84,-0.146,-0.789,-0.736
LINS1 (GeneID 55180),-0.279,1.59,-0.216,-0.0723,-0.463
KCNJ8 (GeneID 3764),0.686,0.764,0.585,0.762,0.582
RND3 (GeneID 390),0.0451,2.5,-0.332,0.102,0.486
ACIN1 (GeneID 22985),-0.367,2.27,-0.291,-0.637,-0.208
CD2AP (GeneID 23607),0.245,1.48,0.198,0.182,0.167
ALDH1B1 (GeneID 219),-0.505,2.16,-0.548,0.105,-0.52
FBXL9P (GeneID 26231),-0.421,3.09,-0.426,-0.424,-0.5
LINC01558 (GeneID 26238),-0.556,2.01,-0.262,-0.699,-0.849
HPF1 (GeneID 54969),-0.536,3.29,-0.479,-0.4,-0.323
UGT2A1 (GeneID 10941),-0.0107,2.62,0.0305,-0.071,-0.000979
CNTNAP4 (GeneID 85445),0.914,1.11,0.856,0.858,0.829
LGALS7 (GeneID 3963),-0.604,2.1,-0.721,-0.703,-0.427
PAK6 (GeneID 56924),-0.203,1.79,0.458,-0.193,-0.463
RB1CC1 (GeneID 9821),-0.433,1.92,-0.659,-0.299,0.117
PPIL3 (GeneID 53938),-0.581,2.37,-0.498,-0.558,-0.496
LAMB4 (GeneID 22798),0.118,2.57,0.239,0.0377,0.0491
LMBR1 (GeneID 64327),-0.0239,1.34,0.148,-0.218,-0.253

Part of the list above, set out differently.
| gene symbol | mean correlation with KSR1 profile | mean distance from KSR1 profile | KSR1 correlation, replicate 1 | KSR1 correlation, replicate 2 | KSR1 correlation, replicate 3 |
| --- | --- | --- | --- | --- | --- |
| RND3 (GeneID 390) | 0.0451 | 2.5 | -0.332 | 0.102 | 0.486 |
| ACIN1 (GeneID 22985) | -0.367 | 2.27 | -0.291 | -0.637 | -0.208 |
| CD2AP (GeneID 23607) | 0.245 | 1.48 | 0.198 | 0.182 | 0.167 |
| ALDH1B1 (GeneID 219) | -0.505 | 2.16 | -0.548 | 0.105 | -0.52 |
| FBXL9P (GeneID 26231) | -0.421 | 3.09 | -0.426 | -0.424 | -0.5 |
| LINC01558 (GeneID 26238) | -0.556 | 2.01 | -0.262 | -0.699 | -0.849 |
| HPF1 (GeneID 54969) | -0.536 | 3.29 | -0.479 | -0.4 | -0.323 |

The listing continues.
gene symbol,mean correlation with KSR1 profile,mean distance from KSR1 profile,"KSR1 correlation, replicate 1","KSR1 correlation, replicate 2","KSR1 correlation, replicate 3"
IFI30 (GeneID 10437),-0.458,1.97,-0.293,-0.635,-0.44
PRKG2 (GeneID 5593),0.0229,1.34,0.747,-0.0955,-0.0339
GAGE2E (GeneID 26749),-0.192,2.42,-0.244,-0.408,-0.434
PLA2G12B (GeneID 84647),0.893,2.72,0.819,0.83,0.332
FPR3 (GeneID 2359),0.537,1.35,0.462,0.633,0.457
FAM117B (GeneID 150864),-0.612,4.57,-0.7,-0.371,-0.43
TNIP3 (GeneID 79931),0.562,1.69,0.684,0.643,0.461
RPL27A (GeneID 6157),0.118,2.7,0.0671,0.289,-0.342
NPAS1 (GeneID 4861),-0.212,1.74,-0.14,-0.0803,-0.491
AKAP9 (GeneID 10142),0.34,1.16,0.241,0.324,0.579
ATP9A (GeneID 10079),0.414,1.94,0.449,0.26,0.422
PPP1CB (GeneID 5500),0.0246,2.06,0.00823,-0.357,0.161
UBA3 (GeneID 9039),-0.0682,2.42,0.0188,-0.153,-0.146
PTGES3 (GeneID 10728),-0.0205,1.98,-0.14,-0.0848,0.0603
CCL26 (GeneID 10344),-0.12,3.56,-0.0082,-0.258,-0.162
SMN1 (GeneID 6606),0.325,1.91,0.29,-0.243,0.563
ATP6V1E1 (GeneID 529),-0.451,3.67,-0.446,-0.381,-0.566
MFSD2A (GeneID 84879),0.187,3.03,0.00925,0.00217,0.213
ULK2 (GeneID 9706),-0.234,2.31,0.272,-0.211,-0.559
THAP2 (GeneID 83591),0.852,1.05,0.672,0.821,0.916
GJD2 (GeneID 57369),0.126,1.76,0.214,-0.417,0.192
MCM5 (GeneID 4174),0.209,2.66,0.254,0.203,-0.0359
NPHP1 (GeneID 4867),-0.472,2.87,-0.402,-0.505,-0.557
